Results on 1 molecule are retold here after article PMC11106082.

In the test the target is TssB1C1 (P. aeruginosa). The test can be described thus: two-hybrid; bacterial two-hybrid (BTH): T18 and T25 fusions from pKT25 or pUT18C co-transformed into E. coli DHM1; spotted on LB agar with 1 mM IPTG and 100 µg/ml X-Gal, 30 °C, 24 or 40 h; blue colour on interaction.

Results are given in words; binding and its absence hold for the method and conditions named. Binding can be weak; no strength is given.

B1: TssA1 (protein, UniProt Q9I750 1-344)
chain: MLDVPVLLAAVSPDSPCGDDLEYDAAFLELERIAQGQPERQMGDAVLPAEPPEWPRVRALASELFGRSKDLRVANLLLQSNVALDGLDGLADGLLLVRELLGQYWDGVYPLLDADDDNDPTFRINALTGLVAEPLLQLVWAIPLVRSRAFGPVNLRAALNAAGLQRFASETLSPEQIAGAFADADADALAATRRALDGAQEHALAIESGVAERVGSAQGLDLGPLRQLLRQALQVFDLYGPQGAGESLAPGAEAVADEQVGAAPVAAVAAPAPRASGEIANREDVLRQLDRLLEYYVRHEPSSPVPVLLKRAKTLVTADFAEIVRNLIPDGISQFETLRGPESE
In the case of B1, the binding entry is “binds”.
